Laboratory results taken from publication PMC10127071.

Target: Rsrc1-161aa-eGFP (mouse)
Assay: affinity purification with mass spectrometry; immunoprecipitation with anti-GFP antibodies from GC-1 spg cells overexpressing Rsrc1-161aa-eGFP (eGFP as negative control); silver staining, differential gel bands excised and detected by mass spectrometry

binding: binds
B1: Complement component 1, q subcomponent binding protein (protein, UniProt O35658 71-278)
chain: LHTEGDKAFVEFLTDEIKEEKKIQKHKSLPKMSGDWELEVNGTEAKLLRKVAGEKITVTFNINNSIPPTFDGEEEPSQGQKAEEQEPERTSTPNFVVEVTKTDGKKTLVLDCHYPEDEIGHEDEAESDIFSIKEVSFQATGDSEWRDTNYTLNTDSLDWALYDHLMDFLADRGVDNTFADELVELSTALEHQEYITFLEDLKSFVKNQ

These are yes or no findings as the source states them, for the method shown. In cells and extracts the contact can be indirect. Here binding means that the protein was enriched with, or labelled near, the bait; the list need not be complete.
